No constants are given. Whether binding was seen depends on the method and setting. For part of these data: Binding seen in cells or lysates may run through a third protein. Some results given as binding are weak or reduced against the parent protein; the word gives no strength. For part of these data: Where a sequence is shown, tags or fusion partners need not be part of it.

In experiment [1] the target is T1, ARD1 expressed from pARD1 (pcDNA) (human) (UniProt P41227).
T1 sequence: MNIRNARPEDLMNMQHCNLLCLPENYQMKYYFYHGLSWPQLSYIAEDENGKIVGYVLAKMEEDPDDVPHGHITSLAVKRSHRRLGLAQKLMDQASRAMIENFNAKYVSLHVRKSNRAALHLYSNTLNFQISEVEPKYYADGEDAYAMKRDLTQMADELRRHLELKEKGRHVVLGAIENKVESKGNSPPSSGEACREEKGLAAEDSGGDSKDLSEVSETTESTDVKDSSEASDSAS
In words: co-IP; HEK293T cotransfected with ARD1 and MSRA plasmids; antibodies for immunoprecipitation and immunoblotting exchanged relative to Figure 1a. A general note: Immunoblotting shows a protein as a band on a membrane.

Experiment [2] concerns the target T2, endogenous ARD1 (human (endogenous in HEK293T and A549)) (UniProt P41227).
T2 sequence: T1 sequence
The experiment in a line: co-IP; endogenous proteins; HEK293T or A549 lysates immunoprecipitated with anti-ARD1, MSRA immunoblotted.

The target of a further experiment is T3, Flag-MSRA (human) (UniProt Q9UJ68).
T3 sequence: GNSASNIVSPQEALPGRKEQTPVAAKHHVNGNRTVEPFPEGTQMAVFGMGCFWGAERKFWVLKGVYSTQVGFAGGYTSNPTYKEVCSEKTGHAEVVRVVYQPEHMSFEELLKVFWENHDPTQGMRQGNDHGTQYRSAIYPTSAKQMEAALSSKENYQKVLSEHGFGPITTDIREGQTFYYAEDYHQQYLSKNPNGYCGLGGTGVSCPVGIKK
In words: co-IP; HEK293T cotransfected with pARD1 and pFlag-MSRA; lysates immunoprecipitated with anti-Flag, immunoblotted for ARD1 and Flag-MSRA.

In experiment [3] the target is T4, glutathione S-transferase-tagged MSRA (GST-MSRA) (human) (UniProt Q9UJ68).
T4 sequence: T3 sequence
The experiment in a line: pull-down; GST pull-down: 1 mg GST-MSRA and 0.5 mg His-ARD1 in 25 mM HEPES pH 7.5, 150 mM KCl, 12.5 mM MgCl2, 20 uM ZnCl2, 5 mM DTT, 0.1% NP40, 10% glycerol, 4 °C, 4 h; glutathione-affinity beads; immunoblot; both purified.

The target in experiment [4] is T5, Arrest defective 1 (ARD1), full-length human, yeast two-hybrid bait (human) (UniProt P41227).
T5 sequence: T1 sequence
The experiment in a line: two-hybrid; yeast two-hybrid screen of a human liver cDNA library with full-length human ARD1 as bait; selection with three reporters.

B1: Flag-MSRA (enzyme, UniProt Q9UJ68-1 24-235)
chain: T3 sequence
For the molecule B1, the binding result in experiment [1] is “binds”.

B2: endogenous MSRA (enzyme, UniProt Q9UJ68-1 24-235)
chain: T3 sequence
Turning to B2, the binding entry in experiment [2] was “binds”.

B3: ARD1 expressed from pARD1 (pcDNA) (enzyme, UniProt P41227-1 1-235)
chain: T1 sequence
With B3, in the experiment with Flag-MSRA (human), the binding entry is “binds”.

B4: His-tagged ARD1 (His-ARD1) (enzyme, UniProt P41227-1 1-235)
chain: T1 sequence
Consider B4, for which the binding result in experiment [3] was “binds”.

B5: MSRA amino acids 132-235, two-hybrid library clone (domain or fragment, UniProt Q9UJ68-1 132-235)
chain: ELLKVFWENHDPTQGMRQGNDHGTQYRSAIYPTSAKQMEAALSSKENYQKVLSEHGFGPITTDIREGQTFYYAEDYHQQYLSKNPNGYCGLGGTGVSCPVGIKK
For the molecule B5, in experiment [4], the binding result is given as “binds”.

B6: MSRA amino acids 126-235, two-hybrid library clone (domain or fragment, UniProt Q9UJ68-1 126-235)
chain: EHMSFEELLKVFWENHDPTQGMRQGNDHGTQYRSAIYPTSAKQMEAALSSKENYQKVLSEHGFGPITTDIREGQTFYYAEDYHQQYLSKNPNGYCGLGGTGVSCPVGIKK
As for B6, in experiment [4], the binding result was “binds”.

(Values after paper PMC4649535.)
